Laboratory results published in the supplement of paper PMC12823440, “Inhibitors supercharge kinase turnover through native proteolytic circuits” (Nature, 2025).
Counter-ions that a name gives are not always drawn. Some of the results follow. Hit calls seldom repeat between salt and free forms of one compound.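 Kinases, fused to nanoluciferase, were expressed in K562 cells; luminescence was measured every 4 h from 2 to 18 h as percent of control (DMSO = 100%, positive control = 0%). A time point is decreased if signal falls significantly (2 sigma). Hits were called by the authors by a rule that is not shown; the count of time points alone does not decide it.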

Target: EGFR_G719S_T790M (UniProt P00533)
Assay: number of time points (of 5) at which kinase-Nluc abundance scored as decreased, DMSO-normalised (count); higher = more persistent destabilization
Conditions: K562; 2-18 h

| SMILES | number of time points |
| --- | --- |
| Cc1ccc(Oc2nc3cc(-c4ccc5c(ccn5C)c4)c(Cl)cc3[nH]2)cc1C(=O)O (10 µM) | 0 |
| COc1ccc([C@H]2c3[nH]c4ccc(Cl)cc4c3CCN2C(=O)Oc2ccc(Cl)cc2)cc1 (2.5 µM) | 0 |
| COc1ncc(-c2nc(N3CCOCC3)nc3c(CN4CCC(C(C)(C)O)CC4)cc(F)cc23)cc1NS(C)(=O)=O [Linperlisib] (10 µM) | 0 |
| C[C@@H](c1ccc2nccn2c1)n1nnc2ncc(-c3cnn(C)c3)nc21 [Savolitinib] (10 µM) | 0 |
| CCn1c(-c2nonc2N)nc2cnc(Oc3cccc(NC(=O)c4ccc(OCCN5CCOCC5)cc4)c3)cc21 (10 µM) | 0 |
| COc1ccc(C(=O)Nc2sc3c(c2C(N)=O)CCCC3)cc1OC (10 µM) | 0 |
| COc1ccc(CC(=O)Nc2nc3c(s2)CCc2ccccc2-3)cc1OC (10 µM) | 0 |
| O=C1Nc2nc(-c3c(O)cccc3OCC3CC3)cc([C@@H]3CCCNC3)c2CO1 [Bay 65-1942 (hydrochloride)] (10 µM) | 0 |

Target: EGFR_L718V (UniProt P00533)
Assay: as above
Conditions: K562; 2-18 h

| SMILES | number of time points |
| --- | --- |
| COc1cc(S(C)(=O)=O)ccc1Nc1nc2ccc(-c3ccc(NC(=O)[C@H](C)c4ccc(F)cc4)cc3)cn2n1 [Empesertib] (10 µM) | 0 |
| CO[C@H]1C[C@@H]2CC[C@@H](C)[C@@](O)(O2)C(=O)C(=O)N2CCCC[C@H]2C(=O)O[C@H]([C@H](C)C[C@@H]2CC[C@@H](O)[C@H](OC)C2)CC(=O)[C@H](C)/C=C(\C)[C@@H](O)[C@@H](OC)C(=O)[C@H](C)C[C@H](C)/C=C/C=C/C=C/1C [Rapamycin] (10 µM) | 0 |
| COc1ccc(Cl)cc1NC(=O)Nc1cc(C)nc2ccccc12 (2.5 µM) | 0 |
| CNc1nc(Nc2cnn(C3CCN(C4COC4)CC3F)c2Cl)ncc1C(F)(F)F (stereo unspecified) (10 µM) | 0 |
| Cc1ccc2nc(NC(=O)CSc3nc4c(c(=O)n3-c3ccccc3)SCC4)sc2c1 (2 µM) | 0 |
| Cc1noc(C)c1-c1ccc(-c2cc(C(N)=O)c(NC(N)=O)s2)c(O[C@H]2CCNC2)c1 (10 µM) | 0 |
| Fc1ccc(-c2nc(-c3c(F)cccc3F)[nH]c2-c2ccncc2)cc1 (10 µM) | 0 |
| C=CC(=O)Nc1ccc(CN(C(=O)Nc2c(Cl)c(OC)cc(OC)c2Cl)c2cc(Nc3ccc(N4CCN(C)CC4)cc3)ncn2)cc1 (10 µM) | 0 |
| CCN(CC)c1ccc2cc(C(=O)N3CCN(C(=O)C4=Cc5c(Br)cccc5S4(=O)=O)CC3)c(=O)oc2c1 (2 µM) | 0 |
| CN1CCN(c2ccc(Nc3ncc4nc(Nc5ccccc5)n([C@@H]5CCN(S(=O)(=O)C6CC6)C5)c4n3)cc2)CC1 (2.5 µM) | 0 |
| COCCOc1ccc(-c2cn(-c3ccccc3)c3nc[nH]c(=O)c23)cc1 (10 µM) | 0 |
| CC(C)CC1(O)CCN(C(=O)c2ccc(NS(=O)(=O)c3cccc4nccnc34)cc2)CC1 (10 µM) | 0 |
| Cc1cc(Nc2cc(Cl)nc(Oc3ccc([N+](=O)[O-])cc3)n2)n[nH]1 [Autophinib] (2.5 µM) | 0 |
| O=C(NCCO)c1ccc2c(c1)nc(Nc1cccc(Cl)c1)c1ccncc12 [CK2 inhibitor 2] (10 µM) | 0 |
| COc1ccc(C2CC(c3ccccc3)=NN2c2ccc(S(N)(=O)=O)cc2)cc1 (stereo unspecified) (10 µM) | 0 |
| C[C@@H]1O[C@@H](O[C@H]2[C@H](Oc3cc(O)c4c(=O)cc(-c5ccc(O)cc5)oc4c3)O[C@H](CO)[C@@H](O)[C@@H]2O)[C@H](O)[C@H](O)[C@H]1O [Rhoifolin] (10 µM) | 0 |
| O=[N+]([O-])c1cc(C(F)(F)F)cc([N+](=O)[O-])c1NNC(=S)Nc1ccc(F)cc1 (10 µM) | 0 |
| CCc1cc(O)c(F)cc1-c1ccc2c(-c3nc4c([nH]3)CN(C3CCN(C)CC3)CC4)n[nH]c2c1 [JAK-IN-5 (hydrochloride)] (2 µM) | 0 |
| O=C(Nc1cccnc1)c1cc(C(=O)c2c(F)cccc2Br)c[nH]1 (10 µM) | 0 |

| SMILES | number of time points |
| --- | --- |
| COc1ccc2c(c1O)OC(C)(C)c1c-2ccc2c1C(=O)N(c1ccc(C(=O)c3ccccc3)cc1)C2=O [Ampkinone] (10 µM) | 0 |
| CC1CCc2nc(N)c(C#N)c(-c3cccnc3)c2C1 (stereo unspecified) (10 µM) | 0 |
| COc1cc(F)c(F)c(Nc2ccc(I)cc2F)c1NS(=O)(=O)C1(C[C@H](O)CO)CC1 [Refametinib] (10 µM) | 0 |
| Cn1nccc1Nc1nccc(-c2cc3c(s2)C(C)(C)N(CCN2CCOCC2)C3=O)n1 (10 µM) | 0 |
| Cc1ccc(-c2c(C(=O)CCl)n(CCCO)c3ncnc(N)c23)cc1 (10 µM) | 0 |
| N[C@H](Cc1c[nH]c2ccccc12)C(=O)N/N=C/c1ccc2nccnc2c1 [Rhosin (hydrochloride)] (10 µM) | 0 |
| CNCc1ccccc1-c1csc([C@@H](C)Nc2nc(C)nc3cc(OC)c(OC)cc23)c1 (2.5 µM) | 0 |
| Cn1cnc(-c2cc3nccc(Oc4ccc(NC(=S)NC(=O)Cc5ccccc5)cc4F)c3s2)c1 [MGCD-265 analog] (10 µM) | 0 |
| C=C1C(=O)O[C@@H]2C[C@@]3(C)CCC[C@H](C)C3=C[C@H]12 [Alantolactone] (10 µM) | 0 |
| O=C(Nc1ccc(F)cc1F)[C@H](NC(=S)Nc1cc(C(F)(F)F)cc(C(F)(F)F)c1)c1ccccc1 (2.5 µM) | 0 |
| Fc1ccc(-c2nc(-c3ccccc3F)[nH]c2-c2ccncc2)cc1 (2.5 µM) | 0 |
| Cc1ccc(Oc2nc3cc(-c4ccc5c(ccn5C)c4)c(Cl)cc3[nH]2)cc1C(=O)O (10 µM) | 0 |
| COc1ccc([C@H]2c3[nH]c4ccc(Cl)cc4c3CCN2C(=O)Oc2ccc(Cl)cc2)cc1 (2.5 µM) | 0 |
| COc1ncc(-c2nc(N3CCOCC3)nc3c(CN4CCC(C(C)(C)O)CC4)cc(F)cc23)cc1NS(C)(=O)=O [Linperlisib] (10 µM) | 0 |
| C[C@@H](c1ccc2nccn2c1)n1nnc2ncc(-c3cnn(C)c3)nc21 [Savolitinib] (10 µM) | 0 |
| CCn1c(-c2nonc2N)nc2cnc(Oc3cccc(NC(=O)c4ccc(OCCN5CCOCC5)cc4)c3)cc21 (10 µM) | 0 |
| COc1ccc(C(=O)Nc2sc3c(c2C(N)=O)CCCC3)cc1OC (10 µM) | 0 |
| COc1ccc(CC(=O)Nc2nc3c(s2)CCc2ccccc2-3)cc1OC (10 µM) | 0 |
| O=C1Nc2nc(-c3c(O)cccc3OCC3CC3)cc([C@@H]3CCCNC3)c2CO1 [Bay 65-1942 (hydrochloride)] (10 µM) | 0 |
